Assay results reported in paper PMC8878721, “Screening of TNFR1 Binding Peptides from Deinagkistrodon acutus Venom through Phage Display” (Toxins, 2022).

Target: T1, TNFR1 (Homo sapiens, UniProt P19438)
T1 construct: purchased Genscript
T1 sequence (P19438 30-455): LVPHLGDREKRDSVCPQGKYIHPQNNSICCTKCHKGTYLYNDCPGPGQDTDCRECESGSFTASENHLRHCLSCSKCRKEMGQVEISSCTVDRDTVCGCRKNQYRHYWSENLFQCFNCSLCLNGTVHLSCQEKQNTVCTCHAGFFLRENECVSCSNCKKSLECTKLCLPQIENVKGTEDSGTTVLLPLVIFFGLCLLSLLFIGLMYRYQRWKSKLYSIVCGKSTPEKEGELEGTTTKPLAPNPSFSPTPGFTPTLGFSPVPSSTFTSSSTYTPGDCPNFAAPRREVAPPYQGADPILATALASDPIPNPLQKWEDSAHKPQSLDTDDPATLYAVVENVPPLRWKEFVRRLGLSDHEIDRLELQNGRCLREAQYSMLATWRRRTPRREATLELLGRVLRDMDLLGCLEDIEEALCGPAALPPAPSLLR
Assay: Surface plasmon resonance measurement of DAvp-1 binding to immobilized TNFR1

## CSCC[C@H](NC(=O)[C@H](CCCNC(=N)N)NC(=O)CNC(=O)[C@H](CCCNC(=N)N)NC(=O)[C@H](CC(C)C)NC(=O)[C@@H](NC(=O)[C@H](CC(C)C)NC(=O)[C@H](CO)NC(=O)[C@@H](N)CC(N)=O)C(C)C)C(=O)N[C@@H](CCCNC(=N)N)C(=O)N[C@@H](CC(=O)O)C(=O)N[C@H](C(=O)N[C@@H](CCCCN)C(=O)N[C@H](C(=O)N[C@@H](CCCNC(=N)N)C(=O)N[C@@H](CC(=O)O)C(=O)N[C@@H](CC(=O)O)C(=O)NCC(=O)N[C@@H](CCCNC(=N)N)C(=O)N[C@@H](CCCCN)C(=O)N[C@@H](CO)C(=O)N1CCC[C@H]1C(=O)N[C@@H](CO)C(=O)N[C@@H](Cc1c[nH]cn1)C(=O)N[C@@H](Cc1c[nH]cn1)C(=O)N[C@@H](CO)C(=O)N[C@@H](CCCCN)C(=O)N[C@@H](Cc1ccccc1)C(=O)N[C@@H](CO)C(=O)NCC(=O)NCC(=O)N[C@H](C(=O)N[C@@H](CCCNC(=N)N)C(=O)N[C@@H](CC(N)=O)C(=O)N[C@@H](Cc1c[nH]c2ccccc12)C(=O)N[C@@H](CCC(N)=O)C(=O)N[C@@H](CCCCN)C(=O)N[C@@H](CC(C)C)C(=O)N[C@H](C(=O)N[C@@H](CCCCN)C(=O)N[C@@H](CC(C)C)C(=O)O)C(C)C)[C@@H](C)O)C(C)C)C(C)C [DAvp-1]
  Kd: 45.4 µM
